These are yes or no findings as the source states them, for the method shown. For part of these data: In cells and extracts the contact can be indirect. Some binding calls cover weakened binding; strength is not graded here.
Assays:
[1] = target: 3XHA-tagged full-length UTX (3XHA-UTX) (UniProt O15550); experiment: co-IP
[2] = target: HA-tagged UTX (HA-UTX), full-length (UniProt O15550); experiment: pull-down

Protein sequences, listed by entry. Tags and fused reporters are not part of them. Residues count along the entry.
UniProt O15550, whole entry: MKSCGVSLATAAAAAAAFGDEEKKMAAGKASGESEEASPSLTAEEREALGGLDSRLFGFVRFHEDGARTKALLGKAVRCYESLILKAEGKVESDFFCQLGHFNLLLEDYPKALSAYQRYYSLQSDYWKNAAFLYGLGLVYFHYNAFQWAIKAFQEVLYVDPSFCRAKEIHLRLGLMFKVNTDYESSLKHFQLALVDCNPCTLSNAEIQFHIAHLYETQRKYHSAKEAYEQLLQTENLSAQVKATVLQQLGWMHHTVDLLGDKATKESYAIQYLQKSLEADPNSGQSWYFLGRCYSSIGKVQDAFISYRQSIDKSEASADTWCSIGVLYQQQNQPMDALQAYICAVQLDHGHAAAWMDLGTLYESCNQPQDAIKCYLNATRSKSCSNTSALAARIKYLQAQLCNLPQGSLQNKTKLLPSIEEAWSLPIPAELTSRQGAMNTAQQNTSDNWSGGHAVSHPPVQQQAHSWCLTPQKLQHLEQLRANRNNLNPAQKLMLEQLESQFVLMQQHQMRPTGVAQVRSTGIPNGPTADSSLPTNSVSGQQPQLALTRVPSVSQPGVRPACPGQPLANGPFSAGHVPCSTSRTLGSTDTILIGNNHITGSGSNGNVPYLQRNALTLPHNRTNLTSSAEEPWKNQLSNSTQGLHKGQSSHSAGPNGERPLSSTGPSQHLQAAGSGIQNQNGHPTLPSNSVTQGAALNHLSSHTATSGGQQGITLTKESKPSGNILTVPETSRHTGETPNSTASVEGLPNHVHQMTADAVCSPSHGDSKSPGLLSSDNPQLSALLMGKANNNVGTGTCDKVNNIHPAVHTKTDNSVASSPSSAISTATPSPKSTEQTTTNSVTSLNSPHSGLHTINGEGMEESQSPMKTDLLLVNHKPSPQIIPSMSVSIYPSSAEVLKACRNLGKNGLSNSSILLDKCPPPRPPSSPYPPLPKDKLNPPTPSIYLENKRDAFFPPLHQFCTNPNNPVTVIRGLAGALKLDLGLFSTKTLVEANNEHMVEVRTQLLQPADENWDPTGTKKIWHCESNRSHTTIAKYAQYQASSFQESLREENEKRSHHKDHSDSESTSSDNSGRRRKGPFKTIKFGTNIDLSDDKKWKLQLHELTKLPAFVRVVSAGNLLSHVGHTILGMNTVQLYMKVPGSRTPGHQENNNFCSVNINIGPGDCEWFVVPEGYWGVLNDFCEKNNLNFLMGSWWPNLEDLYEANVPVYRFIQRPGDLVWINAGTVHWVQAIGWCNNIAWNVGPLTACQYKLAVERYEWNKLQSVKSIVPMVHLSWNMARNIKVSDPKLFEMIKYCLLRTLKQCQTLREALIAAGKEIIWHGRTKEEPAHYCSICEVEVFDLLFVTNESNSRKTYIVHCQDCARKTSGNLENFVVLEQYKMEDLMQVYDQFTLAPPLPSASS
UniProt O14686, 4507-5537: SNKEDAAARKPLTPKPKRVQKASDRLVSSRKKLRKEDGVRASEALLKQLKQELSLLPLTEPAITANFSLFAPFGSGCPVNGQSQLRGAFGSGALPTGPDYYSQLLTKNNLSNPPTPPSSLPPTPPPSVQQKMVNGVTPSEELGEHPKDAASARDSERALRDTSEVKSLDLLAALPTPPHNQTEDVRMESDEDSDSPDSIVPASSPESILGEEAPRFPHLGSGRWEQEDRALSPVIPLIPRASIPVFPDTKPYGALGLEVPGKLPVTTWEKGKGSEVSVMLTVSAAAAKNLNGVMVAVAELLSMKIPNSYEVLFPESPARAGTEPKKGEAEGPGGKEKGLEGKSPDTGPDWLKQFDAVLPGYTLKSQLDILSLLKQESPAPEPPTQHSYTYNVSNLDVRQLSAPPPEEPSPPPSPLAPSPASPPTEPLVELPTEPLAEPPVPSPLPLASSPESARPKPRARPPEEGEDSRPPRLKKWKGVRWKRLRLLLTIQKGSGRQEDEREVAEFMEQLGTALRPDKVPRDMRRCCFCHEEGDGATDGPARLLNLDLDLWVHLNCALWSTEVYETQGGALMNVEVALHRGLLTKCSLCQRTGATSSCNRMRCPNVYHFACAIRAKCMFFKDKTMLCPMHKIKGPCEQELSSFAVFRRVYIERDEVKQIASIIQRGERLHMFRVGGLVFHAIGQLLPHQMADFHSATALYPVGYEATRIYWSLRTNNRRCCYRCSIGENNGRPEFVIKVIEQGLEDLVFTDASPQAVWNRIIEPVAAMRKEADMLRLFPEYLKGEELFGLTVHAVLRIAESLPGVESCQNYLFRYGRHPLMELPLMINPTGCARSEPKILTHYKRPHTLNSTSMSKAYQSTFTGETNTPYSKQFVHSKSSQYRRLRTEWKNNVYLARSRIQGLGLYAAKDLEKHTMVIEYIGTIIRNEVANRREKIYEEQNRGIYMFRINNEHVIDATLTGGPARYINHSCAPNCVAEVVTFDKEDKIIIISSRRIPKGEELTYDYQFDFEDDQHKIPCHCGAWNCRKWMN
UniProt P09874, whole entry: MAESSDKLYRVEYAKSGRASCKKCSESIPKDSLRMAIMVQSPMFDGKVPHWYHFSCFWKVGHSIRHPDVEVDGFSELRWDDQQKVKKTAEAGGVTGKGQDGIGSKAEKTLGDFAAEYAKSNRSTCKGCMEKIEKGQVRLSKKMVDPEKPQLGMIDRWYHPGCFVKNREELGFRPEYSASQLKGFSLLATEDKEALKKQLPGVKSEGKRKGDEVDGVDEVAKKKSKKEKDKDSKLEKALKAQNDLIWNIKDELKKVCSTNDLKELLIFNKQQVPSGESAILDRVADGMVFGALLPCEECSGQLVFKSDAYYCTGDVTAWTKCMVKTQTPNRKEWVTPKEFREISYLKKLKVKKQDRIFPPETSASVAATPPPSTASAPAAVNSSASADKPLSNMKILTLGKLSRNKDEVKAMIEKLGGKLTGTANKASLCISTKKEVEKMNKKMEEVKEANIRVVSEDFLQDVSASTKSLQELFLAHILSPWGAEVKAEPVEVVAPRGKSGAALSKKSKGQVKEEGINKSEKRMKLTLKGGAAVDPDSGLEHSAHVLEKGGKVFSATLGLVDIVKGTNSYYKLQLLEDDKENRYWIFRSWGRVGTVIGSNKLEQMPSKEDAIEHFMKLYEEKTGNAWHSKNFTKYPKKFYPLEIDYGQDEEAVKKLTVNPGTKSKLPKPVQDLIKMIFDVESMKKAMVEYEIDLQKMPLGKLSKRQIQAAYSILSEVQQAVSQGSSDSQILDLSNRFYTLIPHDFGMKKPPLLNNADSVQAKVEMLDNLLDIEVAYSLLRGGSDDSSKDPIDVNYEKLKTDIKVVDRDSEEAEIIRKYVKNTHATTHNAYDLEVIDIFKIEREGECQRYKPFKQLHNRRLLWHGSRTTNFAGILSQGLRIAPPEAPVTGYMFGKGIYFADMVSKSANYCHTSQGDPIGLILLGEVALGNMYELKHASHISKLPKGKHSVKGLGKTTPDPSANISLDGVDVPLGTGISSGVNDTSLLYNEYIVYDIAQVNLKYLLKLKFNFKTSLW

binding [1]	binding [2]	Substance
binds		Flag-MLL4-C (C-terminal region, amino acids 4507-5537) (from UniProt O14686 4507-5537) (domain or fragment)
	binds	Flag-tagged PARP-1 (F-PARP-1) (from UniProt P09874 1-1014)
binds		PARP-1 (from UniProt P09874 1-1014)

Source: publication doi:10.1101/2024.05.31.596824
